# Results: article doi:10.1101/281196
# Amino acid sequences for entries named in this document (tags omitted).
# UniProt Q14676: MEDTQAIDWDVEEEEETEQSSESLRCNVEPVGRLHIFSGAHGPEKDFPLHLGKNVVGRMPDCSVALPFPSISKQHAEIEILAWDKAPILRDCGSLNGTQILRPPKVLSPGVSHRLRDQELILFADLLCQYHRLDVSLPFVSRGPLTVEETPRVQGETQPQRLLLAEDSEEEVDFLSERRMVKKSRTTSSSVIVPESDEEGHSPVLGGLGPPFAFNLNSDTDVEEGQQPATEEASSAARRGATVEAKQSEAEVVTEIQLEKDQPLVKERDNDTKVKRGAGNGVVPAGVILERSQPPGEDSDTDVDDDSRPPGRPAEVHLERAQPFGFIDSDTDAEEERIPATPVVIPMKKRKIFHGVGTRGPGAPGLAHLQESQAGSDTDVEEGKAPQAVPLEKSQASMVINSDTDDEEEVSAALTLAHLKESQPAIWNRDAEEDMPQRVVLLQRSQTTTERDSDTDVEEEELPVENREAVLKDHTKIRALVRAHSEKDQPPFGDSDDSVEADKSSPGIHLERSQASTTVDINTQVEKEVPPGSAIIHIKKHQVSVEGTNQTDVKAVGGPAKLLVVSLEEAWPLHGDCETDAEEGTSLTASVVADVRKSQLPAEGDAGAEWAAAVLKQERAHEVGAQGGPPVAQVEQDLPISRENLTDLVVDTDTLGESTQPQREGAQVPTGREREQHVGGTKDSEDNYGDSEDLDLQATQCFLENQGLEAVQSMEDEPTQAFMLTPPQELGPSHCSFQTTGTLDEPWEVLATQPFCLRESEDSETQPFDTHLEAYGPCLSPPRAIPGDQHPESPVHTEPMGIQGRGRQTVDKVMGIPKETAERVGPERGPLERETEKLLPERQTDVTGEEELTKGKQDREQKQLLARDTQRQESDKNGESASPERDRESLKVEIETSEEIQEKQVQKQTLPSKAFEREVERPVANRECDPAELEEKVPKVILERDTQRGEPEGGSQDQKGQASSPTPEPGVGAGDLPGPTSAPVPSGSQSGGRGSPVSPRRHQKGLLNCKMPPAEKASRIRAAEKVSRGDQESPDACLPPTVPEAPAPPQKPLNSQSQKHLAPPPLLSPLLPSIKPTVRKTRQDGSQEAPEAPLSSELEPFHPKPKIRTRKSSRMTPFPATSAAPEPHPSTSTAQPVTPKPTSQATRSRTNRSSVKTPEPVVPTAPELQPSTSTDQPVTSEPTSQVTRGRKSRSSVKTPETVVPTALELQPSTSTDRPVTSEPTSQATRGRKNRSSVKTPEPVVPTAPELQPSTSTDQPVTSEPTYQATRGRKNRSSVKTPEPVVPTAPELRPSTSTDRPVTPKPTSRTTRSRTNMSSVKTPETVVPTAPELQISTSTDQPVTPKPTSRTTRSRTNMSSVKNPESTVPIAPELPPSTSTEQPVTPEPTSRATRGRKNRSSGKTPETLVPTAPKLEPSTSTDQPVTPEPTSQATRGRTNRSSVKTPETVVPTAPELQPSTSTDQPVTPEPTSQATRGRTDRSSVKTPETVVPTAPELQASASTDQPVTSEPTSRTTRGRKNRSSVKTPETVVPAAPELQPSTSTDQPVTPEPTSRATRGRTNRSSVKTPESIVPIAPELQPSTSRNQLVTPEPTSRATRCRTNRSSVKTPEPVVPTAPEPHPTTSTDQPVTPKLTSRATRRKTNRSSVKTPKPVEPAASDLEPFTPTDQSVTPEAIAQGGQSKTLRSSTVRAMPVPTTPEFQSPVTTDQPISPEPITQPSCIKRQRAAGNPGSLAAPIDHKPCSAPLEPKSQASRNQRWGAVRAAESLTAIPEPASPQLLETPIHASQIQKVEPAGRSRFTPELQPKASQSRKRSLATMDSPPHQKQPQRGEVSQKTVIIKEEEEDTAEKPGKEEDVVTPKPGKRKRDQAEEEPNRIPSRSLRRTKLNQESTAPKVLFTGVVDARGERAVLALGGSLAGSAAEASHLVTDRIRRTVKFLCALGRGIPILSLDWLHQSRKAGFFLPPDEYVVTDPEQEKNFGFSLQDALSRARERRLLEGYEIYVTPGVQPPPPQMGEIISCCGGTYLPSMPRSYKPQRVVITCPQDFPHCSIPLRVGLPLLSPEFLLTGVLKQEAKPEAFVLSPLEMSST
# Results are given in words; binding and its absence hold for the method and conditions named. In cells and extracts the contact can be indirect. Some results given as binding are weak or reduced against the parent protein; the word gives no strength.
# Tests used:
# [1] = target: T1, Inhibitor of Differentiation 4 (ID4) (human (endogenous in HCC70, MDA-MB-468, HCC1954, OVKATE and PDX tumours)) (UniProt P47928); test: proximity ligation
# T1 sequence: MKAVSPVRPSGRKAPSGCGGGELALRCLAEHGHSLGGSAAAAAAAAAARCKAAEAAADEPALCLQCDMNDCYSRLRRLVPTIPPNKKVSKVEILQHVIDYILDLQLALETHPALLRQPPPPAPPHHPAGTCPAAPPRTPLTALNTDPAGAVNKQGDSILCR
# [2] = target: T1, Inhibitor of Differentiation 4 (ID4) (human (endogenous in HCC70, MDA-MB-468, HCC1954, OVKATE and PDX tumours)); test: co-IP
substance,measurement,setting,value
mediator of DNA damage checkpoint protein 1 (MDC1) (from UniProt Q14676 1-2089),binding,[1],binds
same,binding,[2],binds
